Measured values from article PMC3522681.
These are yes or no findings as the source states them, for the method shown. Some binding calls cover weakened binding; strength is not graded here.

Key:
[1] = target: delta opioid receptor (DOR), expressed in N2A cells (N2A-DOR) (UniProt P32300); assay: ELISA; membranes of N2A or HEK293 cells expressing receptor combinations, probed with the CB1R-DOR heteromer-selective mouse monoclonal antibody (1:10 hybridoma supernatant, HRP anti-mouse IgG); both receptors together in the same membranes
[2] = target: delta opioid receptor (DOR), mouse cortex (mouse (endogenous in mouse cortex)) (UniProt P32300); assay: ELISA; brain membranes (5 ug/well) coated on 96-well plates, fixed with 4% PFA, blocked with 1% BSA, CB1R-DOR heteromer-selective mAb 1:100 overnight at 4 C, HRP secondary, read at 490 nm; wild type, CB1R -/- and DOR -/- mice; sham and L5SNT lesioned rats 14 days after surgery

cannabinoid type 1 receptor (CB1R), endogenous in N2A cells and in mouse cortex (from UniProt P47746 1-473)
binding [1]: binds | binding [2]: binds
